# Assay results taken from PubChem BioAssay AID720504 (National Center for Advancing Translational Sciences (NCATS), 2013).
# Sequences of proteins named here, by UniProt entry; tags and fusion partners are left off.
# UniProt P53350, whole entry, looked up: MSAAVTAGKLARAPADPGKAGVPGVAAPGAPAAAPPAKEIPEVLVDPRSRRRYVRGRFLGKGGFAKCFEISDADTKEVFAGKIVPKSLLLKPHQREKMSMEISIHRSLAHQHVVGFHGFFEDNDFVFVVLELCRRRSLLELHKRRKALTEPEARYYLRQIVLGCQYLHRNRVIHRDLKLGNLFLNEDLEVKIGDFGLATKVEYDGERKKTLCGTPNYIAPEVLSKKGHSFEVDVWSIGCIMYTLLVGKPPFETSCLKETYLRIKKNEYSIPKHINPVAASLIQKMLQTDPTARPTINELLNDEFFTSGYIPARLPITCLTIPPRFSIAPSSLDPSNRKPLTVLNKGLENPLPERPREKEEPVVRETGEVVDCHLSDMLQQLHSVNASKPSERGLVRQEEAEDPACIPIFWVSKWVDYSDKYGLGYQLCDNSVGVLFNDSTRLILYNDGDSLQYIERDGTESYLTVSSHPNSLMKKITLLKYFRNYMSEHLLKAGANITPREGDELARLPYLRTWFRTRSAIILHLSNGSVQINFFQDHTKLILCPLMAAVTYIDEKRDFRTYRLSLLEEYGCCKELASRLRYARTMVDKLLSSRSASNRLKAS
# Where “and” joins values, the source holds several entries; their conditions need not be identical. Equal entries are not always repeated. Screen size: about 360,000 compounds; about 10,000 (2.8%) were called active. The inconclusive results got no clear call from the source; some entries with a clear call stand among them for comparison. The call rests on the fitted dose curve; in most records, active means well fitted inhibition curve with a large enough effect; inconclusive means small, poorly fitted or top-dose-only effect; inactive means flat fitted curve, though single readings scatter. Potencies beside an inconclusive call are fits to weak or partial responses and may not hold up. Some structures have more than one record in an assay (separate samples or runs), and their calls can disagree.
# Molecular target: Serine/threonine-protein kinase PLK1 (Homo sapiens) (UniProt P53350)
# Test: qHTS for Inhibitors of PLK1-PDB (polo-like kinase 1 - polo-box domain): Primary Screen; further: nearly all actives have a fitted effect of over 65% in size; on max response, negative = inhibition: series mostly up to about 57 µM
# Conditions: Plk1 PBD binding of FITC phosphopeptide, fluorescence polarization
# On the % scale 0 is the no-effect control and ±100 the full control effect; potency means the concentration at half of the fitted maximal effect.
Compound,Potency,"max response, negative = inhibition"
COc1ccc(C(=O)C2CCCN(S(=O)(=O)c3ccc(C(C)=O)cc3)C2)c(C)c1 (stereo not drawn),"inconclusive: 21.2 µM [inhibitor, partial curve]",
O=C(CCc1ccccc1)Nc1ncc([N+](=O)[O-])s1,"inconclusive: 26.7 µM [inhibitor, single point]",
O=C(CCS(=O)(=O)c1ccc(Br)cc1)Nc1cc(F)ccc1F,"inconclusive: 13.4 µM [inhibitor, partial curve]",
Cc1cc(C(=O)Nc2sc3c(c2C#N)CCC3)no1,,inconclusive: -37% [inhibitor]
Cn1cccc1Cc1nnc(SCC(=O)Nc2ccc3c(c2)OCCO3)n1-c1ccc(F)cc1,"inconclusive: 37.7 µM [inhibitor, single point]",
COc1ccccc1/C=C/C=N/NC(=O)CCC1C(=O)NN=C1C (stereo not drawn),active: 26.7 µM,
O=C(O)c1ccc(NS(=O)(=O)c2cccc3cccnc23)cc1,,inactive: 1.14%
CNS(=O)(=O)c1ccc(NC(=S)Nc2ccc3c(c2)OCO3)cc1,active: 18.9 µM,
COc1cc(C(=O)OCCN2CCOCC2)ccc1O,"inconclusive: 18.9 µM [inhibitor, partial curve]",
Cc1c([N+](=O)[O-])c(C(=O)Sc2ccc(Br)cc2)nn1C,"inconclusive: 15 µM [inhibitor, partial curve]",
COc1ccc(N(C(=O)Cc2cccs2)C2C=CS(=O)(=O)C2)cc1 (stereo not drawn),,inactive: -7.17%
CC1=C(c2ccc(Cl)cc2)[N+](=O)C(C)(C)N1[O-],active: 11.9 µM,
Cc1cc(Cl)ccc1C(=O)C1CCCN(C(=O)c2cncs2)C1 (stereo not drawn),"inconclusive: 26.7 µM [inhibitor, partial curve]",
COC(=O)CCC(=O)OC1(C)C(=O)C2=CN(Cc3ccc4c(c3)OCO4)C(c3ccc(OC)cc3)=CC2=C(Br)C1=O (stereo not drawn),,inconclusive: -37% [inhibitor]
CC1(C)NC(C(=O)O)Cc2c1[nH]c1ccccc21 (stereo not drawn),,inactive: 7.59%
CC(C)NC(=O)CN1C(=O)CSc2ccc(S(=O)(=O)N3CCCC3)cc21,active: 23.8 µM,
Cc1ccc(C(=O)Nc2ccc3c(c2)OCO3)o1,active: 11.9 µM,
Cc1ccc(C2=NS(=O)(=O)N(C)C(C(=O)Nc3ccc4c(c3)OCO4)=C2)cc1,,inactive: -3.83%
N#Cc1ccccc1N=Cc1ccc(Br)cc1,"inconclusive: 23.8 µM [inhibitor, single point]",
COc1ccc2cc(CO)c(Cl)nc2c1,active: 6.7 µM,
COc1cc(/C=C2\C(=O)N(CCC#N)N=C2C)ccc1OCC(=O)Nc1ccccc1,active: 1.34 µM,
COc1cc2c(cc1NC(=O)C(C)Sc1ccc(NC(C)=O)cc1)oc1ccccc12 (stereo not drawn),"inconclusive: 18.9 µM [inhibitor, partial curve]",
CNC(=O)CC1C(=O)N(c2ccc(Cl)cc2)C(=S)N1NC(=O)c1cccc(F)c1 (stereo not drawn),"inconclusive: 23.8 µM [inhibitor, partial curve]",
COC(=O)c1ccc2c(c1)NC(=O)C1CCCN21 (stereo not drawn),"inconclusive: 26.7 µM [inhibitor, partial curve]",
CC(C)CC(=O)Nc1cccc2c1C(=O)N(c1ccccc1)C2=O,,inactive: -1.47%

# Part of the list above, with bars between the fields.
Compound | Potency | max response, negative = inhibition
CC1=C(c2ccc(Cl)cc2)[N+](=O)C(C)(C)N1[O-] | active: 11.9 µM | 
Cc1cc(Cl)ccc1C(=O)C1CCCN(C(=O)c2cncs2)C1 (stereo not drawn) | inconclusive: 26.7 µM [inhibitor, partial curve] | 
COC(=O)CCC(=O)OC1(C)C(=O)C2=CN(Cc3ccc4c(c3)OCO4)C(c3ccc(OC)cc3)=CC2=C(Br)C1=O (stereo not drawn) |  | inconclusive: -37% [inhibitor]
CC1(C)NC(C(=O)O)Cc2c1[nH]c1ccccc21 (stereo not drawn) |  | inactive: 7.59%
CC(C)NC(=O)CN1C(=O)CSc2ccc(S(=O)(=O)N3CCCC3)cc21 | active: 23.8 µM | 
Cc1ccc(C(=O)Nc2ccc3c(c2)OCO3)o1 | active: 11.9 µM | 

# Later entries:

Compound,Potency,"max response, negative = inhibition"
Cc1cc(F)cc(-c2cc(C(=O)NCc3ccco3)[nH]n2)c1,,inactive: -9.33%
O=C(c1ccccn1)N(Cc1ccco1)C1(C(=O)Nc2ccc(Br)cc2)CCCCC1,,inactive: 0.98%
CS(=O)(=O)N1CCC(C(=O)N2CCN(c3ccccc3F)CC2)CC1,active: 18.9 µM,
CN(C)NC(=O)C(NC(=O)c1ccc(N)cc1)C12CC3CC(CC(C3)C1)C2 (stereo not drawn),"inconclusive: 16.8 µM [inhibitor, partial curve]",
O=C(/C=C/c1ccco1)NC(=S)Nc1ccc(C(=O)O)cc1,"inconclusive: 23.8 µM [inhibitor, single point]",
COC(=O)c1ccccc1Nc1cc(C)nc2nc(C)nn12,active: 21.2 µM,
COc1cc(CN2CCCCC2C(=O)Nc2ccc(Oc3ccccc3)nc2)ccc1O (stereo not drawn),"inconclusive: 23.8 µM [inhibitor, single point]",
CCC(=O)N(CCC(c1ccc(C)cc1)c1ccco1)Cc1ccco1 (stereo not drawn),,inactive: -26.4%
Cc1nn(CCC#N)c2nc(-c3ccccc3)cc(C(F)(F)F)c12,,inactive: -1.86%
O=C(O)c1ccc(/C=C(\c2nc3ccccc3[nH]2)c2nc3ccccc3s2)cc1,"inconclusive: 84.4 µM [inhibitor, single point]",
CC(=O)c1c(C)[nH]c(C(=O)OCC(=O)Nc2ccccc2Cl)c1C,,inactive: -0.942%
O=C(CCN1C(=O)c2ccccc2C1=O)N1CCOCC1,"inconclusive: 29.9 µM [inhibitor, partial curve]",
CCOC(=O)c1ccc2c(c1)C1C=CCC1C(C(=O)OCC)N2 (stereo not drawn),,inactive: -17.3%
S=c1[nH]nc(-c2cccc(Br)c2)o1,,inactive: -20.2%
O=C(O)c1ccc(CN2C(=O)c3cccc4c([N+](=O)[O-])ccc(c34)C2=O)cc1,"inconclusive: 37.7 µM [inhibitor, single point]",
CCOc1ccc(S(=O)(=O)N2CCN=C2Cc2ccccc2)cc1C,"inconclusive: 21.2 µM [inhibitor, single point]",
O=C(CC1SC(=O)N(c2ccccc2)C1=O)Nc1ccc(Br)cc1 (stereo not drawn),"inconclusive: 5.97 µM [inhibitor, partial curve]",
Cc1[nH]nc2c1C1(CCN(Cc3ccccc3)CC1)C(C#N)=C(N)O2,"inconclusive: 26.7 µM [inhibitor, single point]",
O=P(c1ccccc1)(c1ccccc1)c1nc(-c2ccc(Cl)cc2)oc1N1CCOCC1,active: 23.8 µM,
[O-]/[N+](=C\c1ccco1)c1ccc(Cl)cc1,"inconclusive: 26.7 µM [inhibitor, single point]",
CC(=O)c1c(C)[nH]c(C(=O)N2CCCC(C)C2)c1C (stereo not drawn),,inactive: -1.52%
CC1CCC(C(C)C)C(OC(=O)Cn2c(-c3ccccc3)[n+](C)c3ccccc32)C1 (stereo not drawn),,inactive: -6.05% and inactive: -13.4%
COC(=O)c1c(NC(C)=O)sc2c1CCCCC2,"inconclusive: 13.4 µM [inhibitor, partial curve]",
O=C1N/C(=N\S(=O)(=O)c2ccccc2)S/C1=C\c1cc([N+](=O)[O-])ccc1O,,inactive: 26.9%
COc1cc(/C=C2\SC(=Nc3ccccc3)N(CCc3c[nH]c4ccccc34)C2=O)ccc1OC(C)C(=O)O (stereo not drawn),"inconclusive: 15 µM [inhibitor, partial curve]",

Compound,Potency,"max response, negative = inhibition"
COc1cc(C(=O)OCC(=O)NC(C)CCc2ccccc2)cc(OC)c1OC (stereo not drawn),"inconclusive: 29.9 µM [inhibitor, single point]",
O=C(CCS(=O)(=O)c1ccc(F)cc1)Nc1nc(-c2ccncc2)cs1,active: 11.9 µM,
CC(=O)c1c(C)[nH]c(-c2ccccc2)nc1=S,"inconclusive: 21.2 µM [inhibitor, partial curve]",
CN(C)C(=O)COC(=O)c1ccccc1Sc1ccccc1C#N,"inconclusive: 37.7 µM [inhibitor, single point]",
Cc1ccc(C)c(NC(=O)Cn2nnc(-c3ccc(N4CCOCC4)cc3)n2)c1,,inactive: 0.193%
Cc1sc2ncnc(-n3nnc4ccccc43)c2c1C,,inactive: -19.2%
O=C1C(Cl)=C(NS(=O)(=O)c2ccc([N+](=O)[O-])cc2)C(=O)c2ccccc21,"inconclusive: 18.9 µM [inhibitor, partial curve]",
CCOC(=O)CCSc1n[nH]c(=S)s1,"inconclusive: 18.9 µM [inhibitor, partial curve]",
Cn1c(N)c(C(=O)CCl)c(=O)n(Cc2ccccc2)c1=O,active: 16.8 µM,
COc1cccc(C=C(C#N)C(=O)c2ccccc2)c1,active: 2.12 µM,
CSc1ccccc1OCc1cc(C(=O)N2CCc3sccc3C2)no1,"inconclusive: 29.9 µM [inhibitor, single point]",
Cc1ccc(C(=O)Nc2ncc3c(Cl)cccc3n2)cc1,active: 21.2 µM,
COc1ccc(-c2cc(C(F)(F)F)nc(SCc3cccc(C(=O)O)c3)n2)cc1,active: 21.2 µM,
CC1(C)Cc2c(sc(N)c2C#N)C(C)(C)N1,"inconclusive: 26.7 µM [inhibitor, single point]",
Cc1ccc(OCC(=O)NNC(=O)c2cccnc2)cc1C,"inconclusive: 21.2 µM [inhibitor, partial curve]",
CC(C)(C)Cc1nnc(NC(=O)CN2C(=O)c3ccccc3C2=O)s1,"inconclusive: 21.2 µM [inhibitor, partial curve]",
Fc1ccc(CNC(=S)NC2CCCCC2)cc1,"inconclusive: 3.36 µM [inhibitor, full curve, poor fit]",
Cc1ccc(N=Nc2ccc3ccccc3c2O)cc1,"inconclusive: 21.2 µM [inhibitor, single point]",
O=C(CSc1nc2ccc(Cl)cc2[nH]1)N1CCN(C(=O)c2ccco2)CC1,"inconclusive: 21.2 µM [inhibitor, single point]",
O=C1NC(=S)S/C1=C1\Sc2ccccc2N1CCCS(=O)(=O)O,"inconclusive: 26.7 µM [inhibitor, partial curve]",
COc1ccccc1C(NC(=O)C1CCN(CCOc2ccc(Cl)cc2Cl)CC1)c1ccccn1 (stereo not drawn),,inactive: 1.75%
O=[N+]([O-])c1ccccc1S(=O)(=O)N1CCN(c2ccccc2)CC1,,inactive: -5.56%
COc1cc(C2c3c(n[nH]c3C)C(=O)N2c2ccc(C)cc2)ccc1O (stereo not drawn),"inconclusive: 23.8 µM [inhibitor, single point]",
